PubChem BioAssay AID248 (DTP/NCI, 2004)
The list does not hold the whole screen: it is rich in T/C values a quarter to a half above the control, in often repeated tests (any T/C) and in doses without a T/C. Further doses and runs are listed elsewhere. T/C gives the treated animals as a percentage of the vehicle group. Some doses have a count of surviving animals in place of a T/C: the source files T/C as zero there, which appears to mark a toxic dose or a test without result, not a measured value. Some survivor counts are full or nearly so, which does not show that the dose was tolerated: the source hardly ever lists a survival T/C far under the control, and the zero likely stands for such cases as well. Survivors were counted at the toxicity check, usually on the fifth day, unless a day is given; later deaths do not show. Schedules are NCI's codes, taken here to give the interval after Q, in days (D) or hours (H), and the number of doses after X. Some schedule codes hold Z or #, which are not explained here. Some doses were run more than once; their values stand side by side, smallest first. Where survival is the endpoint, the PubChem record calls one and a half times the control and up active, and a quarter to a half above the control has no call in these data; cut-offs in other NCI protocols can differ.

Tested on: L1210 leukemia ip in BDF1 mice, survival T/C
Test: NCI In Vivo Anticancer Drug Screen. Data for tumor model L1210 Leukemia (intraperitoneal) in B6D2F1 (BDF1) mice
Conditions: T/C endpoint: mean survival time, higher T/C = longer survival
[1] = dose: 150.0 mg/kg/injection, schedule: Q01DX001 (ip), vehicle: saline
[2] = dose: 300.0 mg/kg/injection, schedule: Q01DX001 (ip), vehicle: saline
[3] = dose: 400.0 mg/kg/injection, schedule: Q01DX001 (ip), vehicle: Klucel (hydroxypropylcellulose) (HPC)
[4] = dose: 200.0 mg/kg/injection, schedule: Q01DX001 (ip), vehicle: Klucel (hydroxypropylcellulose) (HPC)
[5] = dose: 75.0 mg/kg/injection, schedule: Q01DX009 (ip), vehicle: saline
[6] = dose: 400.0 mg/kg/injection, schedule: Q04DX003 (ip), vehicle: saline
[7] = dose: 200.0 mg/kg/injection, schedule: Q04DX003 (ip), vehicle: saline with Tween-80
[8] = dose: 200.0 mg/kg/injection, schedule: Q01DX009 (ip), vehicle: Klucel (hydroxypropylcellulose) (HPC)

## CC1CN1c1cc(O)c(N2CC2C)cc1O (stereo not drawn)
dose: 1.2 mg/kg/injection, schedule: Q01DX Z (ip), vehicle: methylcellulose (MC)
  T/C: 139 % of control
dose: 2.7 mg/kg/injection, schedule: Q01DX Z (ip), vehicle: carboxymethylcellulose (CMC)
  T/C: 129 % of control
dose: 2.7 mg/kg/injection, schedule: Q01DX Z (ip), vehicle: methylcellulose (MC)
  T/C: 128 and 145 % of control
dose: 6.0 mg/kg/injection, schedule: Q01DX Z (ip), vehicle: methylcellulose (MC)
  survivor count: 0 of 6
dose: 9.0 mg/kg/injection, schedule: Q01DX Z (ip), vehicle: carboxymethylcellulose (CMC)
  survivor count: 5 of 6
dose: 9.0 mg/kg/injection, schedule: Q01DX Z (ip), vehicle: methylcellulose (MC)
  survivor count: 5 of 6
dose: 13.5 mg/kg/injection, schedule: Q01DX Z (ip), vehicle: carboxymethylcellulose (CMC)
  survivor count: 0 of 6
dose: 13.5 mg/kg/injection, schedule: Q01DX Z (ip), vehicle: methylcellulose (MC)
  survivor count: 2 of 6
dose: 20.0 mg/kg/injection, schedule: Q01DX Z (ip), vehicle: carboxymethylcellulose (CMC)
  survivor count: 0 of 6
dose: 20.0 mg/kg/injection, schedule: Q01DX Z (ip), vehicle: methylcellulose (MC)
  survivor count: 0 of 6
dose: 40.0 mg/kg/injection, schedule: Q01DX009 (ip), vehicle: saline
  survivor count: 0 of 6
dose: 75.0 mg/kg/injection, schedule: Q01DX001 (ip), vehicle: saline
  survivor count: 2 of 6
[1]
  survivor count: 0 of 6
[2]
  survivor count: 0 of 6

## CN(C)C1C=CS(=O)(=O)C1 (stereo not drawn)
[3]
  survivor count: 1 of 6

## CC1(C)CS(=O)(=O)CC(C)(C)C(=O)C1=O
[4]
  survivor count: 3 of 6
[3]
  survivor count: 0 of 6

## Cc1ccc(C2C(C(=O)c3ccccc3)N2Cc2ccccc2)cc1 (stereo not drawn)
[3]
  survivor count: 0 of 6

## c1ccc([P+](CC[P+](c2ccccc2)(c2ccccc2)c2ccccc2)(c2ccccc2)c2ccccc2)cc1
dose: 20.0 mg/kg/injection, schedule: Q04DX003 (ip), vehicle: saline
  survivor count: 6 of 6
dose: 40.0 mg/kg/injection, schedule: Q04DX003 (ip), vehicle: saline
  survivor count: 0 of 6

## CCOP(=O)(OCC)c1cccc(Cl)c1
[1]
  survivor count: 0 of 6
[2]
  survivor count: 0 of 6

## CCC(N)CC
[5]
  survivor count: 6 of 6
dose: 300.0 mg/kg/injection, schedule: Q01DX009 (ip), vehicle: saline
  survivor count: 0 of 6 and 6 of 6
[6]
  survivor count: 2 of 6

## Nc1c2ccccc2c[n+]2ccccc12
dose: 25.0 mg/kg/injection, schedule: Q01DX009 (ip), vehicle: saline
  T/C: 134 % of control

## Cc1ccc2c(c1)[n+]([O-])c1nc(N)nc(N)c1[n+]2[O-]
dose: 200.0 mg/kg/injection, schedule: Q04DX002 (ip), vehicle: Klucel (hydroxypropylcellulose) (HPC)
  T/C: 125 and 128 % of control

## CC(=O)Nc1ncnc2c1c(C(N)=O)cn2C1OC(COC(C)=O)C(OC(C)=O)C1OC(C)=O (stereo not drawn)
dose: 200.0 mg/kg/injection, schedule: Q01DX001 (ip), vehicle: water
  survivor count: 0 of 6
dose: 400.0 mg/kg/injection, schedule: Q01DX001 (ip), vehicle: water
  survivor count: 1 of 6

## C[n+]1cccc2cccc(C(=O)O)c21
[2]
  survivor count: 1 of 6

## c1ccc(CCN2COc3c(ccc4cccnc34)C2)cc1
[7]
  survivor count: 2 of 6

## Oc1ccc(CNCCNCCNCc2ccc(O)cc2)cc1
dose: 200.0 mg/kg/injection, schedule: Q04DX003 (ip), vehicle: saline
  survivor count: 3 of 6
dose: 400.0 mg/kg/injection, schedule: Q01DX009 (ip), vehicle: saline
  survivor count: 0 of 6
[6]
  survivor count: 0 of 6

## CCCCC(CCCCCC(CCCC)C1NC(C)Cc2cc(OC)c(OC)cc21)C1NC(C)Cc2cc(OC)c(OC)cc21 (stereo not drawn)
[4]
  survivor count: 2 of 3
[3]
  survivor count: 0 of 3

## CCC(C)C#N (stereo not drawn)
dose: 100.0 mg/kg/injection, schedule: Q04DX003 (ip), vehicle: saline with Tween-80
  survivor count: 0 of 6
[7]
  survivor count: 0 of 6
dose: 400.0 mg/kg/injection, schedule: Q04DX003 (ip), vehicle: saline with Tween-80
  survivor count: 0 of 6

## C#CCN(CCCC)CCCC
dose: 400.0 mg/kg/injection, schedule: Q04DX002 (ip), vehicle: saline with Tween-80
  survivor count: 0 of 3

## O=S1Oc2ccccc2O1
[2]
  survivor count: 0 of 6

## CC(C)(C)OC(=O)CC#N
dose: 75.0 mg/kg/injection, schedule: Q04DX003 (ip), vehicle: saline
  survivor count: 6 of 6
dose: 150.0 mg/kg/injection, schedule: Q04DX003 (ip), vehicle: saline
  survivor count: 6 of 6
dose: 300.0 mg/kg/injection, schedule: Q04DX003 (ip), vehicle: saline
  survivor count: 6 of 6
dose: 400.0 mg/kg/injection, schedule: Q01DX001 (ip), vehicle: saline
  survivor count: 1 of 4

## Cc1nc(N)[nH]c(=O)c1NC(=O)CBr
[4]
  survivor count: 0 of 3
[3]
  survivor count: 0 of 3

## Cc1cc(=S)cc(C)o1
dose: 400.0 mg/kg/injection, schedule: Q04DX002 (ip), vehicle: gum acacia
  survivor count: 1 of 3

## O=NN(CCCl)C(=O)NC1C=CCCC1 (stereo not drawn)
dose: 13.0 mg/kg/injection, schedule: Q01DX001 (ip), vehicle: other
  T/C: 129 % of control
dose: 168.0 mg/kg/injection, schedule: Q01DX001 (ip), vehicle: other
  survivor count: 8 of 10

## C[N+](C)(C)c1ccc(/C=C2\C=Cc3ccccc32)cc1
dose: 60.0 mg/kg/injection, schedule: Q01DX001 (ip), vehicle: carboxymethylcellulose (CMC)
  survivor count: 3 of 6
dose: 75.0 mg/kg/injection, schedule: Q01DX001 (ip), vehicle: carboxymethylcellulose (CMC)
  survivor count: 1 of 6
dose: 150.0 mg/kg/injection, schedule: Q01DX001 (ip), vehicle: carboxymethylcellulose (CMC)
  survivor count: 0 of 6
dose: 300.0 mg/kg/injection, schedule: Q01DX001 (ip), vehicle: carboxymethylcellulose (CMC)
  survivor count: 0 of 6

## COC(=O)/C=C\C=C(\CBr)C(=O)OC
dose: 100.0 mg/kg/injection, schedule: Q04DX003 (ip), vehicle: Klucel (hydroxypropylcellulose) (HPC)
  survivor count: 0 of 6
dose: 200.0 mg/kg/injection, schedule: Q04DX003 (ip), vehicle: Klucel (hydroxypropylcellulose) (HPC)
  survivor count: 0 of 6
dose: 400.0 mg/kg/injection, schedule: Q04DX003 (ip), vehicle: Klucel (hydroxypropylcellulose) (HPC)
  survivor count: 0 of 6

## C1CN1P1(N2CC2)=NP(N2CC2)(N2CC2)=NP(N2CC2)(N2CC2)=N1
dose: 2.5 mg/kg/injection, schedule: Q01DX009 (ip), vehicle: saline
  T/C: 129 % of control
dose: 5.0 mg/kg/injection, schedule: Q01DX009 (ip), vehicle: saline
  T/C: 128 % of control
dose: 35.0 mg/kg/injection, schedule: Q01DX009 (ip), vehicle: saline
  T/C: 141 % of control
dose: 50.0 mg/kg/injection, schedule: Q01DX009 (ip), vehicle: saline
  survivor count: 3 of 6
[5]
  survivor count: 2 of 6
dose: 115.0 mg/kg/injection, schedule: Q01DX009 (ip), vehicle: saline
  survivor count: 1 of 6
[1]
  survivor count: 6 of 6
[2]
  survivor count: 5 of 6

## COC(=O)N/N=C/c1c[nH]c2ccccc12
dose: 400.0 mg/kg/injection, schedule: Q01DX009 (ip), vehicle: Klucel (hydroxypropylcellulose) (HPC)
  survivor count: 1 of 6

## O=C1C=CC(=O)N1CO
dose: 10.0 mg/kg/injection, schedule: Q01DX009 (ip), vehicle: saline
  survivor count: 0 of 6

## CN(C)N=C(c1ccccc1)c1ccccc1
[8]
  survivor count: 1 of 6

## CC1(C(=O)O)OCCO1
dose: 400.0 mg/kg/injection, schedule: Q01DX009 (ip), vehicle: saline with Tween-80
  survivor count: 3 of 6

## CN(C)Cc1cccc2ccccc12
dose: 100.0 mg/kg/injection, schedule: Q01DX009 (ip), vehicle: Klucel (hydroxypropylcellulose) (HPC)
  survivor count: 0 of 3
[8]
  survivor count: 0 of 3

## CN(C)Cc1ccc(N)cc1
dose: 200.0 mg/kg/injection, schedule: Q01DX009 (ip), vehicle: water
  survivor count: 4 of 6
dose: 400.0 mg/kg/injection, schedule: Q04DX003 (ip), vehicle: water
  survivor count: 0 of 6
